According to publication doi:10.1101/2020.09.17.302455:
No constants are given. Whether binding was seen depends on the method and setting. Binding calls can cover weak binding; strength is not graded here.

Target: human plasma fibronectin (human)
Assay: ELISA

B1: bone morphogenetic protein 2 (ligand, UniProt P12643 283-396)
chain: QAKHKQRKRLKSSCKRHPLYVDFSDVGWNDWIVAPPGYHAFYCHGECPFPLADHLNSTNHAIVQTLVNSVNSKIPKACCVPTELSAISMLYLDENEKVVLKNYQDMVVEGCGCR
Q: How did the binding turn out when B1 was run?
A: Its binding is “binds”.
